Measurements taken from patent publication US6939888B2, “1-H-3-arylpirrolidine-2,4-dione derivatives” (Bayer Aktiengesellschaft, priority 1994, dated 2005).
Some results were stated once for a whole list of compounds, not compound by compound.

Tested on: caterpillars of the diamond-back moth (Plutella maculipennis)
Assay: Plutella test (cabbage leaf dip)
Format: in vivo
Conditions: after 7 days; concentration of active compound 0.001%; cabbage leaves (Brassica olearacea) dipped
Method: Plutella Test [table] To produce a suitable preparation of active compound, 1 part by weight of active compound is mixed with the stated amount of solvent and the stated amount of emulsifier, and the concentrate is diluted with water to the desired concentration. Cabbage leaves (Brassica olearacea) are treated by being dipped into the preparation of active compound of the desired concentration and are infested with caterpillars of the diamond-back moth (Plutella maculipennis) while the leaves are still moist. After the specified periods of time, the destruction in % is determined. 100% means that all the caterpillars have been killed; 0% means that none of the caterpillars have been killed.

Compound	destruction rate
COc1cccc(Cl)c1C1=C(O)C(C)(C(C)C)NC1=O (centres unmarked) [Ia-1, 3-(2-chloro-6-methoxyphenyl)-5-isopropyl-5-methyl-pyrrolidine-2,4-dione]	at least 90%
COc1ccc(C2=C(O)C(C)(C(C)C)NC2=O)c(Cl)c1 (centres unmarked) [Ia-2, 3-(2-chloro-4-methoxyphenyl)-5-isopropyl-5-methyl-pyrrolidine-2,4-dione]	at least 90%
